According to patent EP4652204A2:
No constants are given. Whether binding was seen depends on the method and setting. Some results given as binding are weak or reduced against the parent protein; the word gives no strength. Where a sequence is shown, tags or fusion partners need not be part of it.

Chains of the proteins cited; added tags and fusions are not shown. Lines headed by an entry give the natural chain unless they say otherwise; changes in a name come on top.
UniProt Q8NHJ6: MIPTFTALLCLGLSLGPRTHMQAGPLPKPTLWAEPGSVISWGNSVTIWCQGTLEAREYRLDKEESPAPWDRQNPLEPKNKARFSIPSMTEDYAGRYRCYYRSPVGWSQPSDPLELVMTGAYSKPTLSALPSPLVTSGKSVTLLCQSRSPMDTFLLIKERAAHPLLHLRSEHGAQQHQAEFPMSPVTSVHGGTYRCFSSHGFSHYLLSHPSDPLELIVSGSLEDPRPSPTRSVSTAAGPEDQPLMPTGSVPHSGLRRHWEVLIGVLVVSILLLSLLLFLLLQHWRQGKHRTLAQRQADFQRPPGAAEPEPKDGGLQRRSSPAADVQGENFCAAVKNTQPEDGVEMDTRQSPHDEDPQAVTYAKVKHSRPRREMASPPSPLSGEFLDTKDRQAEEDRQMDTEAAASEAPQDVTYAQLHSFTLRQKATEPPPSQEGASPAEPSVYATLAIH

How the values were obtained:
[1] = molecular target: recombinant ectodomain of LILRB4 common variant (human) (UniProt Q8NHJ6); assay: ELISA
[2] = molecular target: recombinant ectodomain of LILRB4 common variant (human) (UniProt Q8NHJ6); assay: ELISA (FIG. 14 legend)

B1: recombinant Fc mutated mIgG2a anti-LILRB4 mAb (clone: ZM3.1) (antibody, V domains shown)
VH: EVQLQQSGAELVKPGASVKLSCTASGFNIKDTYVHWVKQRPEQGLEWIGRIDPANGHTKYDPKFQVRATITTDTSSTTAYLQLSSLTSEDTAVYYCGTEGIFDGYPFAYWGQGTLVTVSA
VL: DIVMTQSHKFMSTSVGDRVSITCKASQDVGTAVAWYQQKPGQSPKVLIYWASTRHTGVPDRFTGSGSGTDFTLTISNVQSEDLADYFCHQYSTYPLTFGGGTKLEIK
- binding [1]: binds
- binding [2]: binds
